{"source": "PubChem BioAssay AID652272 (Drosophila RNAi Screening Center, 2013)", "screen": "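Finding fly genes that regulate Hedgehog signal transduction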 (primary screen)", "cell system": "Drosophila clone 8 (Cl8) cells", "reagents": "long dsRNA against Drosophila genes", "detection": "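Plate reader light from a firefly reporter under a ptc promoter fragment that responds to Hedgehog, with Renilla light as transfection reference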", "reading the numbers": "firefly Hh reporter signal: higher = more ptc reporter light; Renilla reference signal: higher = more Renilla control light", "hit rule": "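Called a hit if the two-replicate mean z-score lies below -2 or above +3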", "meaning of the calls": "active = hit: reporter lowered or raised; inactive = not a hit", "note": "In all, the deposit lists about 21,000 reagents; this is a random part of those that have a named target and a result. In the full data, 503 (2.4%) are marked active. 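Raw plate light values, not normalised; calls rest on replicate z-scores that were not deposited; hits include reporter decreases as well as increases.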 The numbers tell different reagents against one gene apart. Not given: the amount of reagent, the time to read-out."}
{"gene":"PIG-N (Phosphatidylinositol glycan anchor biosynthesis class N)","reagent no.":1,"firefly Hh reporter signal, replicate 1":53811,"firefly Hh reporter signal, replicate 2":61778,"Renilla reference signal, replicate 1":1411,"Renilla reference signal, replicate 2":5464,"Outcome":"inactive"}
{"gene":"PolD3 (DNA polymerase delta subunit 3)","reagent no.":1,"firefly Hh reporter signal, replicate 1":1.23e5,"firefly Hh reporter signal, replicate 2":76376,"Renilla reference signal, replicate 1":5408,"Renilla reference signal, replicate 2":3543,"Outcome":"inactive"}
{"gene":"hwt (heavyweight)","reagent no.":1,"firefly Hh reporter signal, replicate 1":4.57e5,"firefly Hh reporter signal, replicate 2":71940,"Renilla reference signal, replicate 1":3472,"Renilla reference signal, replicate 2":3472,"Outcome":"inactive"}
{"gene":"hwt (heavyweight)","reagent no.":2,"firefly Hh reporter signal, replicate 1":1.14e5,"firefly Hh reporter signal, replicate 2":1.77e5,"Renilla reference signal, replicate 1":3910,"Renilla reference signal, replicate 2":6531,"Outcome":"inactive"}
{"gene":"wash (washout)","reagent no.":1,"firefly Hh reporter signal, replicate 1":82680,"firefly Hh reporter signal, replicate 2":44435,"Renilla reference signal, replicate 1":2104,"Renilla reference signal, replicate 2":3856,"Outcome":"inactive"}
{"gene":"CG13795","reagent no.":1,"firefly Hh reporter signal, replicate 1":1.15e5,"firefly Hh reporter signal, replicate 2":58994,"Renilla reference signal, replicate 1":2397,"Renilla reference signal, replicate 2":6024,"Outcome":"inactive"}
{"gene":"Top3beta (Topoisomerase 3beta)","reagent no.":1,"firefly Hh reporter signal, replicate 1":71315,"firefly Hh reporter signal, replicate 2":72461,"Renilla reference signal, replicate 1":1699,"Renilla reference signal, replicate 2":1612,"Outcome":"inactive"}
{"gene":"CG9689","reagent no.":1,"firefly Hh reporter signal, replicate 1":86096,"firefly Hh reporter signal, replicate 2":71030,"Renilla reference signal, replicate 1":2194,"Renilla reference signal, replicate 2":1708,"Outcome":"inactive"}
{"gene":"usp (ultraspiracle)","reagent no.":1,"firefly Hh reporter signal, replicate 1":83397,"firefly Hh reporter signal, replicate 2":2.73e5,"Renilla reference signal, replicate 1":2704,"Renilla reference signal, replicate 2":10754,"Outcome":"inactive"}
{"gene":"AANATL6 (Arylalkylamine N-acetyltransferase-like 6)","reagent no.":1,"firefly Hh reporter signal, replicate 1":99237,"firefly Hh reporter signal, replicate 2":54756,"Renilla reference signal, replicate 1":2674,"Renilla reference signal, replicate 2":4416,"Outcome":"inactive"}
{"gene":"upd3 (unpaired 3)","reagent no.":1,"firefly Hh reporter signal, replicate 1":78611,"firefly Hh reporter signal, replicate 2":2.54e5,"Renilla reference signal, replicate 1":2139,"Renilla reference signal, replicate 2":10971,"Outcome":"inactive"}
{"gene":"upd3 (unpaired 3)","reagent no.":2,"firefly Hh reporter signal, replicate 1":1.17e5,"firefly Hh reporter signal, replicate 2":3.61e5,"Renilla reference signal, replicate 1":3475,"Renilla reference signal, replicate 2":13973,"Outcome":"inactive"}
{"gene":"Ldaf1 (Lipid droplet assembly factor 1)","reagent no.":1,"firefly Hh reporter signal, replicate 1":1.53e5,"firefly Hh reporter signal, replicate 2":1.03e5,"Renilla reference signal, replicate 1":3712,"Renilla reference signal, replicate 2":3989,"Outcome":"inactive"}
{"gene":"alpha4GT1 (alpha1,4-galactosyltransferase 1)","reagent no.":1,"firefly Hh reporter signal, replicate 1":87079,"firefly Hh reporter signal, replicate 2":93849,"Renilla reference signal, replicate 1":4496,"Renilla reference signal, replicate 2":4253,"Outcome":"inactive"}
